No constants are given. Whether binding was seen depends on the method and setting. In cells and extracts the contact can be indirect. Some results given as binding are weak or reduced against the parent protein; the word gives no strength.
What was measured:
[1] = target: Flag-METTL3 expressed in the livers of Mettl3-HOE mice (UniProt Q8C3P7); assay: co-IP; liver extracts of control and Mettl3-HOE mice (8 weeks old; also Mettl3-HOE mice fed NC or MCD for 2 weeks); first incubated with DNase1 (200 U/ml) at 37 °C for 30 min; immunoprecipitated with Flag beads, immunoblotted with anti-HDAC1 or anti-HDAC2; interactions decreased in MCD-fed mice
[2] = target: Flag-METTL3 (methyltransferase like 3), expressed in HEK293T cells (UniProt Q8C3P7); assay: co-IP; Myc-CDK9 vector co-transfected with or without Flag-METTL3 vector in HEK293T cells; total cell lysates immunoprecipitated with Flag beads at 4 °C for 2 h, immunoblotted with anti-Myc or anti-Flag
[3] = target: Flag-METTL3 (methyltransferase like 3), expressed in HEK293T cells (UniProt Q8C3P7); assay: co-IP; HA-HDAC1 or HA-HDAC2 vector co-transfected with or without Flag-METTL3 vector in HEK293T cells; lysates first incubated with DNase1 (200 U/ml) at 37 °C for 30 min; immunoprecipitated with Flag or HA beads at 4 °C for 2 h, immunoblotted with anti-HA or anti-Flag

By UniProt entry, the sequences of proteins in these tests, tags left out.
UniProt Q8C3P7: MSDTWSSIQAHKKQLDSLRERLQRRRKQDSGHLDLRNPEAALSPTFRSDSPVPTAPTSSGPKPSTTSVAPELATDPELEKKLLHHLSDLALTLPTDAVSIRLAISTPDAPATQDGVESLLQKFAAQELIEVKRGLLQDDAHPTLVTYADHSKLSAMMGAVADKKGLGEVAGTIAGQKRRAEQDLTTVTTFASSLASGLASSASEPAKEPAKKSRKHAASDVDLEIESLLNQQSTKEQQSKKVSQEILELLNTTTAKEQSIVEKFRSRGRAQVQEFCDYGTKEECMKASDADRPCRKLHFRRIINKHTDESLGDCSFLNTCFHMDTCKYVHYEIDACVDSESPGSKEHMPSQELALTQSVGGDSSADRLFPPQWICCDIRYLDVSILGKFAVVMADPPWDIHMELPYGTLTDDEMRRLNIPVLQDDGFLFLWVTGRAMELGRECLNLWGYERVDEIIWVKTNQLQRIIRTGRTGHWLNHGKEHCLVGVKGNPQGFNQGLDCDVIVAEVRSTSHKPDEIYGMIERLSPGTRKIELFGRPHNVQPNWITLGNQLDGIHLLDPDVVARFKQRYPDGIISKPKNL
UniProt P70288: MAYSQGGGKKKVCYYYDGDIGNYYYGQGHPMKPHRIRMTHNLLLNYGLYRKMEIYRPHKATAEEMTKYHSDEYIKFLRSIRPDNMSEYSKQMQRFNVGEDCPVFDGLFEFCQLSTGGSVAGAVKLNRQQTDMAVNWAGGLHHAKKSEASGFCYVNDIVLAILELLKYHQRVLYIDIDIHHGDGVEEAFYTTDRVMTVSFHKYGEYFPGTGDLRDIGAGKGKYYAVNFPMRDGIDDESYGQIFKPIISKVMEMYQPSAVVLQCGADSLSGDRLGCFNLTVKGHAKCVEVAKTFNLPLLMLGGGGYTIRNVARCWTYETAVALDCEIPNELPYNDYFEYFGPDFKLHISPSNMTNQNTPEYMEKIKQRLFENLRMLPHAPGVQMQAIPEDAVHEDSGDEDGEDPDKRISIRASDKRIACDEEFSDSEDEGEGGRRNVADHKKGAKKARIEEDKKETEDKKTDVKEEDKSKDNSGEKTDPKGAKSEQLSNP
UniProt P50750: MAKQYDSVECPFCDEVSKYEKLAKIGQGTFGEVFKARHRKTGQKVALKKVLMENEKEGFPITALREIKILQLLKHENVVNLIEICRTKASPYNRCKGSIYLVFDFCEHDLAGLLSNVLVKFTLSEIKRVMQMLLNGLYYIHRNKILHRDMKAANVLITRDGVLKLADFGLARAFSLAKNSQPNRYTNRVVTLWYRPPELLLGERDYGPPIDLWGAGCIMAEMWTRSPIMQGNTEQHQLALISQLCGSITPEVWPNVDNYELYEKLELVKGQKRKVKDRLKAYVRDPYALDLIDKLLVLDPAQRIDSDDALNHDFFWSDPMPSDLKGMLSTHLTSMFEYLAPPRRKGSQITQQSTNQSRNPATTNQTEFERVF
UniProt Q92769: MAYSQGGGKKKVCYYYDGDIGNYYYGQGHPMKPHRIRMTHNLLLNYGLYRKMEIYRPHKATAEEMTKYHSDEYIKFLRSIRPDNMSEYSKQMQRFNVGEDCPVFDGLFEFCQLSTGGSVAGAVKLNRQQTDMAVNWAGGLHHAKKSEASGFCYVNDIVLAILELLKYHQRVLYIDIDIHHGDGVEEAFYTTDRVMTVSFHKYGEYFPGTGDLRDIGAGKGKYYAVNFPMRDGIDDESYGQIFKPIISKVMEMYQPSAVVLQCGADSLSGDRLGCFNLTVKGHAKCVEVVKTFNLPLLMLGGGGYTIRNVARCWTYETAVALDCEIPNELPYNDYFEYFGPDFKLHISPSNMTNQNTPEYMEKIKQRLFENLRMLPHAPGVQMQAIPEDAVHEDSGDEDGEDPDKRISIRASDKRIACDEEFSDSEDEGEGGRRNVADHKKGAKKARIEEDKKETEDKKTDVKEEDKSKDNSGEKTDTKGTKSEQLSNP
UniProt O09106: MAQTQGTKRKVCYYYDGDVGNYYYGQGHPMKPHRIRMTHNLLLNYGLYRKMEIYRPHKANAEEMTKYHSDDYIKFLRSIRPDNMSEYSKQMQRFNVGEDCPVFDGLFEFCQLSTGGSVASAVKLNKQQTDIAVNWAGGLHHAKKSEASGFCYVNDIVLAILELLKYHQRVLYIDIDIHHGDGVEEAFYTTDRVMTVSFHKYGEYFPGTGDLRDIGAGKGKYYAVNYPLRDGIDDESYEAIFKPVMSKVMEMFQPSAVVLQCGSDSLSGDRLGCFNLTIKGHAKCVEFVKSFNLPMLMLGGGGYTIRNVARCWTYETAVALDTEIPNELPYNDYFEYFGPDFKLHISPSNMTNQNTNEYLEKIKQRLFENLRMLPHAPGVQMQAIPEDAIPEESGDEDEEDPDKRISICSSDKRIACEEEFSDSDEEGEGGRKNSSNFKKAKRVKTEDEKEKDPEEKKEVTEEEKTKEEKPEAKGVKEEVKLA
UniProt Q13547: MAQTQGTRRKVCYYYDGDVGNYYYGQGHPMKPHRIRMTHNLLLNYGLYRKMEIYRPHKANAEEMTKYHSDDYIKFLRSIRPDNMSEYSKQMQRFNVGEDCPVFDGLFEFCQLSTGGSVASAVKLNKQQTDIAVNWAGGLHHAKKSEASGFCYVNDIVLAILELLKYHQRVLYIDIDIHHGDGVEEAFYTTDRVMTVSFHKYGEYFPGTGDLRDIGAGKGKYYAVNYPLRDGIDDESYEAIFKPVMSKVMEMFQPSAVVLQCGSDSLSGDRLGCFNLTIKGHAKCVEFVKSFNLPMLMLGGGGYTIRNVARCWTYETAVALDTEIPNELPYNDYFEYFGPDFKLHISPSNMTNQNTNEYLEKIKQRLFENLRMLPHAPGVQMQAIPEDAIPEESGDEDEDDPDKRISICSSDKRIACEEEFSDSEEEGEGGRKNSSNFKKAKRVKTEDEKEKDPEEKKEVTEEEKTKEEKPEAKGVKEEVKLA

| Substance | binding [1] | binding [3] | further results |
| --- | --- | --- | --- |
| HDAC2, endogenous in mouse liver (from UniProt P70288 1-488) (enzyme) | binds | – | – |
| Myc-CDK9 (from UniProt P50750 1-372) (enzyme) | – | – | binding [2]: binds |
| HA-HDAC2 (from UniProt Q92769 1-488) (enzyme) | – | binds | – |
| HDAC1, endogenous in mouse liver (from UniProt O09106 1-482) (enzyme) | binds | – | – |
| HA-HDAC1 (from UniProt Q13547 1-482) (enzyme) | – | binds | – |
